Results as given in the supplement of paper PMC12823440, “Inhibitors supercharge kinase turnover through native proteolytic circuits” (Nature, 2025).
Some of the results follow. Hit calls seldom repeat between salt and free forms of one compound.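 Kinases, fused to nanoluciferase, were expressed in K562 cells; luminescence was measured every 4 h from 2 to 18 h as percent of control (DMSO = 100%, positive control = 0%). A time point is decreased if signal falls significantly (2 sigma). Hits were called by the authors by a rule that is not shown; the count of time points alone does not decide it.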

Amino acid sequences for entries named in this document (tags omitted). A change or cut given only in a name is not applied to a line headed by its entry.
UniProt P53667: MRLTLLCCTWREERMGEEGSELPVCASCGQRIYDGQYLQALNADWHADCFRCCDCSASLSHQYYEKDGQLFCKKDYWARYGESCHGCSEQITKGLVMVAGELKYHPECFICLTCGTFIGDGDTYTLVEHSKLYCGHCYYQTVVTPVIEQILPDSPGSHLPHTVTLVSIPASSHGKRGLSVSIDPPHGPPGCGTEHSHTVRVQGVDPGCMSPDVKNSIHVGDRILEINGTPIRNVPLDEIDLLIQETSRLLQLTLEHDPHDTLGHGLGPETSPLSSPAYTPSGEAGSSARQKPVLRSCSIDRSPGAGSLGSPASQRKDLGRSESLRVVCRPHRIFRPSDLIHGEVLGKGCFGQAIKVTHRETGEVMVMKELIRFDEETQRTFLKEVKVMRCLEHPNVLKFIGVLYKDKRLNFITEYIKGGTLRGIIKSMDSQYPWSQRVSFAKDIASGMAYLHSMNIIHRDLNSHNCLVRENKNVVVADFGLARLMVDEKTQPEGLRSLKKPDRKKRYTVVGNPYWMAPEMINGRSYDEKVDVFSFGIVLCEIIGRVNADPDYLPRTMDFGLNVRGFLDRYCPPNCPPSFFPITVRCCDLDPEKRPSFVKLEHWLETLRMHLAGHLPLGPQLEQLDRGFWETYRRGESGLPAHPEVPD
UniProt P53671: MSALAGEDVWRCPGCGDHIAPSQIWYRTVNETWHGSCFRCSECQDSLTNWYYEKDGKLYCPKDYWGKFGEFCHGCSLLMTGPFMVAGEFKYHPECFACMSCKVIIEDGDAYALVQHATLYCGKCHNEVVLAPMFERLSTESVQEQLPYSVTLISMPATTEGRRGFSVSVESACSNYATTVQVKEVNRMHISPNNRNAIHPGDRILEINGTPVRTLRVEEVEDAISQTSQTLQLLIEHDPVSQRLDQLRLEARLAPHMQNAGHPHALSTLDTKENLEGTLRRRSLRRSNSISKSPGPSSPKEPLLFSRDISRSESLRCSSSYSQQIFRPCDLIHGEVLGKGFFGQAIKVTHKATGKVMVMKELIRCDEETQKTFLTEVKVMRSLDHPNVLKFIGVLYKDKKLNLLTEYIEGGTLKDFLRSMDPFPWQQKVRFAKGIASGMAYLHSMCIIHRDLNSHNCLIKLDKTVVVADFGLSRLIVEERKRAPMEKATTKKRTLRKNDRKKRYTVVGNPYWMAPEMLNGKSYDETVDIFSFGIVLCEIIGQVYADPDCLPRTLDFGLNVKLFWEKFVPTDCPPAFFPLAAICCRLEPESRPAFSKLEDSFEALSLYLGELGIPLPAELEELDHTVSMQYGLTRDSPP
UniProt P07948: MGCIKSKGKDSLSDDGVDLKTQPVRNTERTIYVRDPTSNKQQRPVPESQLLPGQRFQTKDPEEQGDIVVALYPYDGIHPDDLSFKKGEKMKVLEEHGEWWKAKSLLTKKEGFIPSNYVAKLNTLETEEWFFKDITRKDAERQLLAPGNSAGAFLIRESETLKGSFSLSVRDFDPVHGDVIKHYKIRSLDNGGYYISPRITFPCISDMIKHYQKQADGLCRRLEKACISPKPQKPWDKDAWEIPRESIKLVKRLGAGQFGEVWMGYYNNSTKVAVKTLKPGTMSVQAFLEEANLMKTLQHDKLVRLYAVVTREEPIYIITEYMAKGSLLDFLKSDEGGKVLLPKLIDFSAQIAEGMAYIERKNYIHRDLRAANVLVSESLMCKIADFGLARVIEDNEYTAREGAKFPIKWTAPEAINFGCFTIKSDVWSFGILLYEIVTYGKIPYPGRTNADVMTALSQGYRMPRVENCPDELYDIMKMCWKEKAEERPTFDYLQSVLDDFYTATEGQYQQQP
UniProt P31152, whole entry: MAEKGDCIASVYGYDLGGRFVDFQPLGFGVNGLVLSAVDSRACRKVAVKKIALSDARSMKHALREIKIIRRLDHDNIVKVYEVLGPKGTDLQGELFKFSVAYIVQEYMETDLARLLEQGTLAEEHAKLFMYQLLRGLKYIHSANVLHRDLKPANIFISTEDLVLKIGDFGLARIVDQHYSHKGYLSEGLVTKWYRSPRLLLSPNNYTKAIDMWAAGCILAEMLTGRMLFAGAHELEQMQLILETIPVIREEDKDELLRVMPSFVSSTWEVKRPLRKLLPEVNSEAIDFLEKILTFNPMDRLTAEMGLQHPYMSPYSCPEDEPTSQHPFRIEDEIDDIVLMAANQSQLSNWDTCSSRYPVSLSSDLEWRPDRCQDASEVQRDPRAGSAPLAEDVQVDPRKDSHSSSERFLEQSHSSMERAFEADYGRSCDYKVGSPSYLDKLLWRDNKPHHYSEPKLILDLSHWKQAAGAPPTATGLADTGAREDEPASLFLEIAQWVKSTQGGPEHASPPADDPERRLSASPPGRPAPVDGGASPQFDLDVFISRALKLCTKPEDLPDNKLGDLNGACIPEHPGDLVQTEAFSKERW
UniProt P49137, whole entry, looked up: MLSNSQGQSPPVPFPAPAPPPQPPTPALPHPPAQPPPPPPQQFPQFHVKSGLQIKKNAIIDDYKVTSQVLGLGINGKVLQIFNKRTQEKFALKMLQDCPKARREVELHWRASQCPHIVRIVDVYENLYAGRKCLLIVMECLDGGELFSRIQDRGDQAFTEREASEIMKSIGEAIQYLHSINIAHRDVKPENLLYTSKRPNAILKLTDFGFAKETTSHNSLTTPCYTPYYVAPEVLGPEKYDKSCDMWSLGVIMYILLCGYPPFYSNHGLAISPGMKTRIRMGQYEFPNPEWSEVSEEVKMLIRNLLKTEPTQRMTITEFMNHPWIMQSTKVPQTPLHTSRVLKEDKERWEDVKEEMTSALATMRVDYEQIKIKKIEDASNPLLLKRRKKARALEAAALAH
UniProt Q9BUB5: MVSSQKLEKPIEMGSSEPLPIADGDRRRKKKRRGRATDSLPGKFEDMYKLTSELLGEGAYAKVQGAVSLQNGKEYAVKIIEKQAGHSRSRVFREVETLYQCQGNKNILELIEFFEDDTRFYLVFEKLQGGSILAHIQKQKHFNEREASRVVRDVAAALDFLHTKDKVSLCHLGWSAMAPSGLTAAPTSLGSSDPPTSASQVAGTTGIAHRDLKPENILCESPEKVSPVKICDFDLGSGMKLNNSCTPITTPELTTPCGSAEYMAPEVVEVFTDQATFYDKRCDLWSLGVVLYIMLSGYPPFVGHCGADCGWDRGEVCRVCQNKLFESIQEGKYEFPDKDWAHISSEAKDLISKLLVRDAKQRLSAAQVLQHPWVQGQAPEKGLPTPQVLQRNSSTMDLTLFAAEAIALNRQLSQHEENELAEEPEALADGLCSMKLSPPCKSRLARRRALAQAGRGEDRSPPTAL
UniProt Q16620, whole entry, looked up: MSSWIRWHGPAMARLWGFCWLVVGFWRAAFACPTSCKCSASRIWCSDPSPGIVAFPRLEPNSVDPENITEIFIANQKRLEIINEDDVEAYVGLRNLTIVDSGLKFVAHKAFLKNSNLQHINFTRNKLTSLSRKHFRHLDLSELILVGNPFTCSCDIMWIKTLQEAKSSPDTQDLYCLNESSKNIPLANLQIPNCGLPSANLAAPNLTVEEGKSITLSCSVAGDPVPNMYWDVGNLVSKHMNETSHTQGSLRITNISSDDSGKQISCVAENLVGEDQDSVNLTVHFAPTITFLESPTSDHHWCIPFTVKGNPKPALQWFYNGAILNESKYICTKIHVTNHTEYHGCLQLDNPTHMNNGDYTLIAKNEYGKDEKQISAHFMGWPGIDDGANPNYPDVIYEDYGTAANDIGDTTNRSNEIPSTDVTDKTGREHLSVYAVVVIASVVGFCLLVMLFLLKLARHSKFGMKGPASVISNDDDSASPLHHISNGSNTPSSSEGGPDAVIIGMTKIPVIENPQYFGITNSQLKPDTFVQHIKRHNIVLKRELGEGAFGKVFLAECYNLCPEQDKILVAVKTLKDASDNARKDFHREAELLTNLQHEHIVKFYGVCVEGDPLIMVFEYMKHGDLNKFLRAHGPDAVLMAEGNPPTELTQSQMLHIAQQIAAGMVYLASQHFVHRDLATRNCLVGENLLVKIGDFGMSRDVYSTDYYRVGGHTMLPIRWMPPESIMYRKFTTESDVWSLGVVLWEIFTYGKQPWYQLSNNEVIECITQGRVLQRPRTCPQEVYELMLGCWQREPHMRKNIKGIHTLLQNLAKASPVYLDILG
UniProt O96013: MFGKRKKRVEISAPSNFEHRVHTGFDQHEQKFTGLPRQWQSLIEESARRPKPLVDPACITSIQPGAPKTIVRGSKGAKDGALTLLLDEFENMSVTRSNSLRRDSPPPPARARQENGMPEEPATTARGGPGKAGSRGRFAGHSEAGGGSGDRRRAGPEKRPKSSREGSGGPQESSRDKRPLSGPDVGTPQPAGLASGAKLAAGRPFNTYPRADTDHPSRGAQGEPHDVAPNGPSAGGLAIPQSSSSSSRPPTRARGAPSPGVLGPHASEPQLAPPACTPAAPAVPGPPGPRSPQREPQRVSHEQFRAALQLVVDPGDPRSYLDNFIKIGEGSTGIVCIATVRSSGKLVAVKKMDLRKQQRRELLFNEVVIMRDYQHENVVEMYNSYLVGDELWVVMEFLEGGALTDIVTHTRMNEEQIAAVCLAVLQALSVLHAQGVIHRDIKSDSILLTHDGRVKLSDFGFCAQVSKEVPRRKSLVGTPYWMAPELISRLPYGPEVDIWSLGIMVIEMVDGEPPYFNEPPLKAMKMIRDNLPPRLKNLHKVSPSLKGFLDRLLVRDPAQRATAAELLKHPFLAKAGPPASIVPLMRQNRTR
UniProt Q96KB5: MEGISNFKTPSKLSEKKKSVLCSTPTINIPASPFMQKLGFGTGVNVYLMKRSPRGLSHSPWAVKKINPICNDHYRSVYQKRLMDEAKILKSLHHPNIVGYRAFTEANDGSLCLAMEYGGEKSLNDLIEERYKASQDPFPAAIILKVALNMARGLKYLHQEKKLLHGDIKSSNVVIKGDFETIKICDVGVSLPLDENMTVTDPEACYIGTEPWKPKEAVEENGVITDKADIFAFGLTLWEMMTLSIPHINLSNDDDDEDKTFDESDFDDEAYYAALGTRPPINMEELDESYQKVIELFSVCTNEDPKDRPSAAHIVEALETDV
UniProt P09619, whole entry: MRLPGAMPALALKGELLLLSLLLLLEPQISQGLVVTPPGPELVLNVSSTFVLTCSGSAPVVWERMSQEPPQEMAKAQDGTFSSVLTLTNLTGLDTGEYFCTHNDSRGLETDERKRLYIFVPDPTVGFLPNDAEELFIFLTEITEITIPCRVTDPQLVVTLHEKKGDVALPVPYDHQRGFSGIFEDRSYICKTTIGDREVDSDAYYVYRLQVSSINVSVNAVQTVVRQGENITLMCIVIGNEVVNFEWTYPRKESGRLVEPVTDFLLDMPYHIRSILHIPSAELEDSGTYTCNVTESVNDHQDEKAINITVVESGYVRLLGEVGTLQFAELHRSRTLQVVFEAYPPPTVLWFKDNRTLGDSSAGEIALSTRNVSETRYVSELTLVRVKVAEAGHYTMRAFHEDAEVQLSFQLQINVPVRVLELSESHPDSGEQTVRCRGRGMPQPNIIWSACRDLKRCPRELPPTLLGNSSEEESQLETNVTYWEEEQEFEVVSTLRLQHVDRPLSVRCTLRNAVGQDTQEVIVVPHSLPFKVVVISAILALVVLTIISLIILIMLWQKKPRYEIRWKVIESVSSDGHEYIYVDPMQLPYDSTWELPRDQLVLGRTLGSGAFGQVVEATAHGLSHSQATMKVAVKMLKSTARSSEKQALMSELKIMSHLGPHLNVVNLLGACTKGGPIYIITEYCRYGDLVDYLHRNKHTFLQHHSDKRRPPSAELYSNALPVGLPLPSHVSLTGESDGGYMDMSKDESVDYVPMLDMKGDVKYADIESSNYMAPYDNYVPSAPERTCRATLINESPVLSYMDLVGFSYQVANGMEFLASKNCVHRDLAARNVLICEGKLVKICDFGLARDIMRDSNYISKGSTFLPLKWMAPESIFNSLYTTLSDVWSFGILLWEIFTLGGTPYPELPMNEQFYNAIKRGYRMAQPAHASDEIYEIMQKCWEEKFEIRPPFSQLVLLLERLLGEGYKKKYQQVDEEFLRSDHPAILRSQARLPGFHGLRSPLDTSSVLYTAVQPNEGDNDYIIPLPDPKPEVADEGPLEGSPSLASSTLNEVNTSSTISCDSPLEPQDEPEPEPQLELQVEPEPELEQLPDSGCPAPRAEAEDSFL
UniProt Q15118, whole entry, looked up: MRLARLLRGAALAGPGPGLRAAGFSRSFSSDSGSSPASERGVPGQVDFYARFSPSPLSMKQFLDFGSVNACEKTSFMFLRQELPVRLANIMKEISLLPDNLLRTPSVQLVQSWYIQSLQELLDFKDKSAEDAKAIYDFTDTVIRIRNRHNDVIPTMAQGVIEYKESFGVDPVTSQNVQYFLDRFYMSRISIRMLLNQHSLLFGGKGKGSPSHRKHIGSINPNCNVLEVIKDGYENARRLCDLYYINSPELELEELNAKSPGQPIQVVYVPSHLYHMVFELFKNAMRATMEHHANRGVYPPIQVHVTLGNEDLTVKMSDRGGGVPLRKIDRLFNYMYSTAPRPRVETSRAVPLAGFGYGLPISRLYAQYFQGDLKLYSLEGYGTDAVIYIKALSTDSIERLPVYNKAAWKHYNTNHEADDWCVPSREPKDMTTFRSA

Legend:
Experiment in all cases: kinase-Nluc reporter destabilization hit call (1 = scored as downregulated) (binary); higher = compound decreases kinase abundance
Conditions in all cases: K562; 2-18 h
IRAK3 = IRAK3 (UniProt Q9Y616)
JAK1 = JAK1 (UniProt P23458)
LCK = LCK (UniProt P06239)
LIMK1 = LIMK1 (UniProt P53667)
LIMK2 = LIMK2 (UniProt P53671)
LMTK2 = LMTK2 (UniProt Q8IWU2)
LYN = LYN (UniProt P07948)
MAP2K1 = MAP2K1 (UniProt Q02750)
MAP2K2 = MAP2K2 (UniProt P36507)
MAP4K2 = MAP4K2 (UniProt Q12851)
MAPK1 = MAPK1 (UniProt P28482)
MAPK4 = MAPK4 (UniProt P31152)
MAPKAPK2 = MAPKAPK2 (UniProt P49137)
MKNK1 = MKNK1 (UniProt Q9BUB5)
NTRK2 = NTRK2 (UniProt Q16620)
NTRK3 = NTRK3 (UniProt Q16288)
PAK4 = PAK4 (UniProt O96013)
PBK = PBK (UniProt Q96KB5)
PDGFRB = PDGFRB (UniProt P09619)
PDK1 = PDK1 (UniProt Q15118)

Measured: kinase-Nluc reporter destabilization hit call

CC(C)(C)NS(=O)(=O)c1cncc(-c2cc(F)c3nc(N)nn3c2)c1 (10 µM)
inactive: IRAK3 = 0 | JAK1 = 0 | LCK 0 | LIMK1 = 0 | LIMK2 = 0 | LMTK2 = 0 | LYN 0 | MAP2K1 = 0 | MAP2K2 = 0 | MAP4K2 = 0 | MAPK1 = 0 | MAPK4 = 0 | MAPKAPK2 = 0 | MKNK1 = 0 | NTRK2 = 0 | NTRK3 = 0 | PAK4 = 0 | PBK 0 | PDGFRB 0 | PDK1 = 0

C[C@@H]1O[C@@H](O[C@H]2[C@H](OC(=O)[C@]34CCC(C)(C)C[C@H]3C3=CC[C@@H]5[C@@]6(C)C[C@H](O)[C@H](O[C@@H]7O[C@H](CO)[C@@H](O)[C@H](O)[C@H]7O)C(CO)(CO)[C@@H]6CC[C@@]5(C)[C@]3(C)C[C@H]4O)OC[C@H](O)[C@@H]2O)[C@H](O)[C@H](O)[C@H]1O[C@@H]1OC[C@@H](O)[C@H](O[C@@H]2OC[C@](O)(CO)[C@H]2O)[C@H]1O [Platycodin D] (10 µM)
inactive: IRAK3 = 0 | JAK1 = 0 | LCK 0 | LIMK1 = 0 | LIMK2 = 0 | LMTK2 = 0 | LYN 0 | MAP2K1 = 0 | MAP2K2 = 0 | MAP4K2 = 0 | MAPK1 = 0 | MAPK4 = 0 | MAPKAPK2 = 0 | MKNK1 = 0 | NTRK2 = 0 | NTRK3 = 0 | PAK4 = 0 | PBK 0 | PDGFRB 0 | PDK1 = 0

C=CC(=O)Nc1cccc(Oc2nc(Nc3ccc(N4CCN(C)CC4)cc3)ncc2Cl)c1 (2.5 µM)
inactive: IRAK3 = 0 | JAK1 = 0 | LCK 0 | LIMK1 = 0 | LIMK2 = 0 | LMTK2 = 0 | LYN 0 | MAP2K1 = 0 | MAP2K2 = 0 | MAP4K2 = 0 | MAPK1 = 0 | MAPK4 = 0 | MAPKAPK2 = 0 | MKNK1 = 0 | NTRK2 = 0 | NTRK3 = 0 | PAK4 = 0 | PBK 0 | PDGFRB 0 | PDK1 = 0

CCc1nc(C(N)=O)c(Nc2ccc(N3CCC(N4CCN(C)CC4)CC3)c(OC)c2)nc1NC1CCC(OC)CC1 (stereo not given) [EML4-ALK kinase inhibitor 1] (2.5 µM)
inactive: IRAK3 = 0 | JAK1 = 0 | LCK 0 | LIMK1 = 0 | LIMK2 = 0 | LMTK2 = 0 | LYN 0 | MAP2K1 = 0 | MAP2K2 = 0 | MAP4K2 = 0 | MAPK1 = 0 | MAPK4 = 0 | MAPKAPK2 = 0 | MKNK1 = 0 | NTRK2 = 0 | NTRK3 = 0 | PAK4 = 0 | PBK 0 | PDGFRB 0 | PDK1 = 0

Nc1nc2c(ncn2COCCO)c(=O)[nH]1 [Acyclovir] (10 µM)
inactive: IRAK3 = 0 | JAK1 = 0 | LCK 0 | LIMK1 = 0 | LIMK2 = 0 | LMTK2 = 0 | LYN 0 | MAP2K1 = 0 | MAP2K2 = 0 | MAP4K2 = 0 | MAPK1 = 0 | MAPK4 = 0 | MAPKAPK2 = 0 | MKNK1 = 0 | NTRK2 = 0 | NTRK3 = 0 | PAK4 = 0 | PBK 0 | PDGFRB 0 | PDK1 = 0

CCOc1cc(C(=O)N2CCC(N3CCN(C)CC3)CC2)ccc1Nc1ncc2c(n1)N(S(C)(=O)=O)c1ccccc1C(=O)N2C (10 µM)
inactive: IRAK3 = 0 | JAK1 = 0 | LCK 0 | LIMK1 = 0 | LIMK2 = 0 | LMTK2 = 0 | LYN 0 | MAP2K1 = 0 | MAP2K2 = 0 | MAP4K2 = 0 | MAPK1 = 0 | MAPK4 = 0 | MAPKAPK2 = 0 | MKNK1 = 0 | NTRK2 = 0 | NTRK3 = 0 | PAK4 = 0 | PBK 0 | PDGFRB 0 | PDK1 = 0

CNS(=O)(=O)C[C@H]1CC[C@H](N(C)c2[nH]cnc3nccc2-3)CC1 [Oclacitinib (maleate)] (10 µM)
inactive: IRAK3 = 0 | JAK1 = 0 | LCK 0 | LIMK1 = 0 | LIMK2 = 0 | LMTK2 = 0 | LYN 0 | MAP2K1 = 0 | MAP2K2 = 0 | MAP4K2 = 0 | MAPK1 = 0 | MAPK4 = 0 | MAPKAPK2 = 0 | MKNK1 = 0 | NTRK2 = 0 | NTRK3 = 0 | PAK4 = 0 | PBK 0 | PDGFRB 0 | PDK1 = 0

Nc1n[nH]c(N)c1N=Nc1ccc(O)cc1 (10 µM)
inactive: IRAK3 = 0 | JAK1 = 0 | LCK 0 | LIMK1 = 0 | LIMK2 = 0 | LMTK2 = 0 | LYN 0 | MAP2K1 = 0 | MAP2K2 = 0 | MAP4K2 = 0 | MAPK1 = 0 | MAPK4 = 0 | MAPKAPK2 = 0 | MKNK1 = 0 | NTRK2 = 0 | NTRK3 = 0 | PAK4 = 0 | PBK 0 | PDGFRB 0 | PDK1 = 0

C=C[C@H]1[C@H](O[C@@H]2O[C@H](CO)[C@@H](O)[C@H](O)[C@H]2O)OC=C(C(=O)OC)[C@H]1CCOC(=O)c1cc(O)c(O)c(O)c1 [Cornuside] (10 µM)
inactive: IRAK3 = 0 | JAK1 = 0 | LCK 0 | LIMK1 = 0 | LIMK2 = 0 | LMTK2 = 0 | LYN 0 | MAP2K1 = 0 | MAP2K2 = 0 | MAP4K2 = 0 | MAPK1 = 0 | MAPK4 = 0 | MAPKAPK2 = 0 | MKNK1 = 0 | NTRK2 = 0 | NTRK3 = 0 | PAK4 = 0 | PBK 0 | PDGFRB 0 | PDK1 = 0

COc1cc2nccc(Oc3ccc(NC(=O)Nc4ccc(F)cc4F)c(F)c3)c2cc1OC (10 µM)
inactive: IRAK3 = 0 | JAK1 = 0 | LCK 0 | LIMK1 = 0 | LIMK2 = 0 | LMTK2 = 0 | LYN 0 | MAP2K1 = 0 | MAP2K2 = 0 | MAP4K2 = 0 | MAPK1 = 0 | MAPK4 = 0 | MAPKAPK2 = 0 | MKNK1 = 0 | NTRK2 = 0 | NTRK3 = 0 | PAK4 = 0 | PBK 0 | PDGFRB 0 | PDK1 = 0

COc1ccc2c(c1)C[C@H](C(=O)Nc1ccc(-c3cn[nH]c3)cc1OCCN(C)C)CO2 [Chroman 1] (10 µM)
inactive: IRAK3 = 0 | JAK1 = 0 | LCK 0 | LIMK1 = 0 | LIMK2 = 0 | LMTK2 = 0 | LYN 0 | MAP2K1 = 0 | MAP2K2 = 0 | MAP4K2 = 0 | MAPK1 = 0 | MAPK4 = 0 | MAPKAPK2 = 0 | MKNK1 = 0 | NTRK2 = 0 | NTRK3 = 0 | PAK4 = 0 | PBK 0 | PDGFRB 0 | PDK1 = 0

3 structures already listed, arranged by molar mass, largest number first:
C[C@@H]1O[C@@H](O[C@H]2[C@H](OC(=O)[C@]34CCC(C)(C)C[C@H]3C3=CC[C@@H]5[C@@]6(C)C[C@H](O)[C@H](O[C@@H]7O[C@H](CO)[C@@H](O)[C@H](O)[C@H]7O)C(CO)(CO)[C@@H]6CC[C@@]5(C)[C@]3(C)C[C@H]4O)OC[C@H](O)[C@@H]2O)[C@H](O)[C@H](O)[C@H]1O[C@@H]1OC[C@@H](O)[C@H](O[C@@H]2OC[C@](O)(CO)[C@H]2O)[C@H]1O [Platycodin D] (10 µM)
inactive: IRAK3 = 0 | JAK1 = 0 | LCK 0 | LIMK1 = 0 | LIMK2 = 0 | LMTK2 = 0 | LYN 0 | MAP2K1 = 0 | MAP2K2 = 0 | MAP4K2 = 0 | MAPK1 = 0 | MAPK4 = 0 | MAPKAPK2 = 0 | MKNK1 = 0 | NTRK2 = 0 | NTRK3 = 0 | PAK4 = 0 | PBK 0 | PDGFRB 0 | PDK1 = 0

C=C[C@H]1[C@H](O[C@@H]2O[C@H](CO)[C@@H](O)[C@H](O)[C@H]2O)OC=C(C(=O)OC)[C@H]1CCOC(=O)c1cc(O)c(O)c(O)c1 [Cornuside] (10 µM)
inactive: IRAK3 = 0 | JAK1 = 0 | LCK 0 | LIMK1 = 0 | LIMK2 = 0 | LMTK2 = 0 | LYN 0 | MAP2K1 = 0 | MAP2K2 = 0 | MAP4K2 = 0 | MAPK1 = 0 | MAPK4 = 0 | MAPKAPK2 = 0 | MKNK1 = 0 | NTRK2 = 0 | NTRK3 = 0 | PAK4 = 0 | PBK 0 | PDGFRB 0 | PDK1 = 0

Nc1n[nH]c(N)c1N=Nc1ccc(O)cc1 (10 µM)
inactive: IRAK3 = 0 | JAK1 = 0 | LCK 0 | LIMK1 = 0 | LIMK2 = 0 | LMTK2 = 0 | LYN 0 | MAP2K1 = 0 | MAP2K2 = 0 | MAP4K2 = 0 | MAPK1 = 0 | MAPK4 = 0 | MAPKAPK2 = 0 | MKNK1 = 0 | NTRK2 = 0 | NTRK3 = 0 | PAK4 = 0 | PBK 0 | PDGFRB 0 | PDK1 = 0

(next part)

C[C@@H]1CC[C@]2(C(=O)O)CC[C@]3(C)C(=CC[C@@H]4[C@@]5(C)CC[C@H](O)[C@@](C)(CO)[C@@H]5CC[C@]43C)[C@@H]2[C@]1(C)O [Rotundic acid] (10 µM)
inactive: IRAK3 = 0 | JAK1 = 0 | LCK 0 | LIMK1 = 0 | LIMK2 = 0 | LMTK2 = 0 | LYN 0 | MAP2K1 = 0 | MAP2K2 = 0 | MAP4K2 = 0 | MAPK1 = 0 | MAPK4 = 0 | MAPKAPK2 = 0 | MKNK1 = 0 | NTRK2 = 0 | NTRK3 = 0 | PAK4 = 0 | PBK 0 | PDGFRB 0 | PDK1 = 0

Cc1occ2c1C(=O)c1c(O)ccc(O)c1C2 (2.5 µM)
inactive: IRAK3 = 0 | JAK1 = 0 | LCK 0 | LIMK1 = 0 | LIMK2 = 0 | LMTK2 = 0 | LYN 0 | MAP2K1 = 0 | MAP2K2 = 0 | MAP4K2 = 0 | MAPK1 = 0 | MAPK4 = 0 | MAPKAPK2 = 0 | MKNK1 = 0 | NTRK2 = 0 | NTRK3 = 0 | PAK4 = 0 | PBK 0 | PDGFRB 0 | PDK1 = 0

COc1cc(/C=C/c2ccc(NC(=O)/C=C/c3cc(OC)c(OC)c(OC)c3)cc2)cc(OC)c1 (2.5 µM)
inactive: IRAK3 = 0 | JAK1 = 0 | LCK 0 | LIMK1 = 0 | LIMK2 = 0 | LMTK2 = 0 | LYN 0 | MAP2K1 = 0 | MAP2K2 = 0 | MAP4K2 = 0 | MAPK1 = 0 | MAPK4 = 0 | MAPKAPK2 = 0 | MKNK1 = 0 | NTRK2 = 0 | NTRK3 = 0 | PAK4 = 0 | PBK 0 | PDGFRB 0 | PDK1 = 0

O=C(c1ccc(NS(=O)(=O)c2cccc3cccnc23)cc1)N1CCN(CC2CC2)CC1 [Mitapivat] (10 µM)
inactive: IRAK3 = 0 | JAK1 = 0 | LCK 0 | LIMK1 = 0 | LIMK2 = 0 | LMTK2 = 0 | LYN 0 | MAP2K1 = 0 | MAP2K2 = 0 | MAP4K2 = 0 | MAPK1 = 0 | MAPK4 = 0 | MAPKAPK2 = 0 | MKNK1 = 0 | NTRK2 = 0 | NTRK3 = 0 | PAK4 = 0 | PBK 0 | PDGFRB 0 | PDK1 = 0

Clc1ccc(Nc2cccc(-c3cn[nH]c3)c2)cc1 (10 µM)
inactive: IRAK3 = 0 | JAK1 = 0 | LCK 0 | LIMK1 = 0 | LIMK2 = 0 | LMTK2 = 0 | LYN 0 | MAP2K1 = 0 | MAP2K2 = 0 | MAP4K2 = 0 | MAPK1 = 0 | MAPK4 = 0 | MAPKAPK2 = 0 | MKNK1 = 0 | NTRK2 = 0 | NTRK3 = 0 | PAK4 = 0 | PBK 0 | PDGFRB 0 | PDK1 = 0

O=C(Nc1ncc(SCCN2CCCC2)s1)[C@]1(c2ccc(S(=O)(=O)C3CC3)cc2)C[C@H]1C1CCCCC1 [Globalagliatin] (2.5 µM)
inactive: IRAK3 = 0 | JAK1 = 0 | LCK 0 | LIMK1 = 0 | LIMK2 = 0 | LMTK2 = 0 | LYN 0 | MAP2K1 = 0 | MAP2K2 = 0 | MAP4K2 = 0 | MAPK1 = 0 | MAPK4 = 0 | MAPKAPK2 = 0 | MKNK1 = 0 | NTRK2 = 0 | NTRK3 = 0 | PAK4 = 0 | PBK 0 | PDGFRB 0 | PDK1 = 0
